No constants are given. Whether binding was seen depends on the method and setting. For some of these results: In cells and extracts the contact can be indirect. Some results given as binding are weak or reduced against the parent protein; the word gives no strength. For some of these results: Tags and fused reporters may be left off the sequences shown.
T1: HA-tagged JunD, P15066
T1 chain: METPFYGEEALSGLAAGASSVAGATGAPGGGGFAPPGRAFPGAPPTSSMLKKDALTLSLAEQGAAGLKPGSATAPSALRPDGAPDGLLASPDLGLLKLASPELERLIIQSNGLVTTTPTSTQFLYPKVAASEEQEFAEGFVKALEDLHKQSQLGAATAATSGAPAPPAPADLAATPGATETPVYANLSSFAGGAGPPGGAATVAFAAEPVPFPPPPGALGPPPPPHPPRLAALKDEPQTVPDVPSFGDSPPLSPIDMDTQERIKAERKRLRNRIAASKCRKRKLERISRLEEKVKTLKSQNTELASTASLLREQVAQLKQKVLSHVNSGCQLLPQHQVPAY

Sequences of proteins named here, by UniProt entry; tags and fusion partners are left off.
UniProt P97303: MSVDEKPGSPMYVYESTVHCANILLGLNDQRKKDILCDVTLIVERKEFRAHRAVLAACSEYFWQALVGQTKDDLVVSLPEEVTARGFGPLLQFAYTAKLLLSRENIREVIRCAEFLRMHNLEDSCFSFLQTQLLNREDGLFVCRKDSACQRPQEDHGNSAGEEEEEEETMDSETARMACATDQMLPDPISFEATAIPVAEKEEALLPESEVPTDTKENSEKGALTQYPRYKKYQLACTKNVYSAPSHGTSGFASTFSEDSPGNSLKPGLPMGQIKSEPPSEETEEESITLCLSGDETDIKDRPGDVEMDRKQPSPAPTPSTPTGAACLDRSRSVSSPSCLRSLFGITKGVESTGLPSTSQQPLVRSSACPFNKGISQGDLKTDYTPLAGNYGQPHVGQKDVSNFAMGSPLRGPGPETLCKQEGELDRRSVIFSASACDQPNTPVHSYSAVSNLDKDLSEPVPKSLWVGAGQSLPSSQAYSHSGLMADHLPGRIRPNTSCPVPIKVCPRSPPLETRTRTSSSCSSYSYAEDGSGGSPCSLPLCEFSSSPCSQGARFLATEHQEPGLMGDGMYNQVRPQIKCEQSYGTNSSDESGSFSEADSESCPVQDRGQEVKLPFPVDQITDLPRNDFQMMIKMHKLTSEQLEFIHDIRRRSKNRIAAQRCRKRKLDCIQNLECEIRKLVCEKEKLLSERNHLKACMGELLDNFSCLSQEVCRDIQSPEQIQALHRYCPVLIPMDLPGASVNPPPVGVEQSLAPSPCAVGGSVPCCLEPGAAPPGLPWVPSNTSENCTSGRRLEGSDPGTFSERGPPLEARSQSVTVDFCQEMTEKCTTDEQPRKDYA


Legend:
[1] = molecular target: Flag-tagged Bach2 protein (mouse) (UniProt P97303); test: AlphaScreen or HTRF; Flag-tagged Bach2 mixed with biotinylated transcription factors, 26 °C for 1 h; then protein A-conjugated acceptor beads, streptavidin-coated donor beads and anti-Flag M2 antibody, 26 °C for 1 h; proteins from cell-free synthesis; intensities relative to DHFR
HA-tagged JunD, P15066 = molecular target: T1, HA-tagged JunD, P15066; test: oligonucleotide precipitation assay; lysates of transfected 293 T cells incubated with biotinylated oligonucleotides (AP-1 consensus; Th2#3 RHS6, wild type or AP-1 motif mutant); bound proteins immunoblotted; settings: remark: other sources report otherwise
HA-tagged Bach2 (mouse) [2] = molecular target: HA-tagged Bach2 (mouse) (UniProt P97303); test: co-IP; mixtures of lysates of 293 T cells transfected to express Myc-tagged or HA-tagged proteins; immunoprecipitation with anti-Myc-Tag or anti-HA-Tag mAb, immunoblot; RIPA buffer for the anti-Myc immunoprecipitation
Myc-tagged Bach2 (mouse) = Myc-tagged Bach2 (mouse) (UniProt P97303); test: oligonucleotide precipitation assay; lysates of transfected 293 T cells incubated with biotinylated oligonucleotides (AP-1 consensus; Th2#3 RHS6, wild type or AP-1 motif mutant); bound proteins immunoblotted
HA-tagged Bach2 (mouse) [3] = molecular target: HA-tagged Bach2 (mouse) (UniProt P97303); test: as above

Row | binding [1] | binding (HA-tagged Bach2 (mouse) [2]) | Binder | further results
1 |  | binds | Myc-tagged Batf (protein, UniProt O35284 1-125) MPHSSDSSDSSFSRSPPPGKQDSSDDVRKVQRREKNRIAAQKSRQRQTQKADTLHLESEDLEKQNAALRKEIKQLTEELKYFTSVLSSHEPLCSVLASGTPSPPEVVYSAHAFHQPHISSPRFQP | binding (Myc-tagged Bach2 (mouse)): binds; binding (HA-tagged Bach2 (mouse) [3]): binds
2 | binds |  | biotinylated Batf3 (protein, UniProt Q9D275 1-118, biotinylated (site not stated)) MSQGPPAVSVLQRSVDAPGNQPQSPKDDDRKVRRREKNRVAAQRSRKKQTQKADKLHEEHESLEQENSVLRREISKLKEELRHLSEVLKEHEKMCPLLLCPMNFVQLRSDPVASCLPR | 

The next lines start with the binder.

Row | Binder | binding [1] | binding (HA-tagged Bach2 (mouse) [2]) | further results
3 | biotinylated Batf (protein, UniProt O35284 1-125, biotinylated (site not stated)) MPHSSDSSDSSFSRSPPPGKQDSSDDVRKVQRREKNRIAAQKSRQRQTQKADTLHLESEDLEKQNAALRKEIKQLTEELKYFTSVLSSHEPLCSVLASGTPSPPEVVYSAHAFHQPHISSPRFQP | binds |  | 
4 | Myc-tagged Batf, O35284 1-125 (protein) MPHSSDSSDSSFSRSPPPGKQDSSDDVRKVQRREKNRIAAQKSRQRQTQKADTLHLESEDLEKQNAALRKEIKQLTEELKYFTSVLSSHEPLCSVLASGTPSPPEVVYSAHAFHQPHISSPRFQP |  |  | binding (HA-tagged JunD, P15066): binds
5 | Myc-tagged Batf3 (protein, UniProt Q9D275 1-118) MSQGPPAVSVLQRSVDAPGNQPQSPKDDDRKVRRREKNRVAAQRSRKKQTQKADKLHEEHESLEQENSVLRREISKLKEELRHLSEVLKEHEKMCPLLLCPMNFVQLRSDPVASCLPR |  | binds | 

— article PMC5025763
